According to PubChem BioAssay AID248 (DTP/NCI, 2004):
The list is a part of this screen's results and no random one: it covers a few groups of compounds. Other doses and runs of a compound may be missing. T/C gives the treated animals as a percentage of the vehicle group. Some doses have a count of surviving animals in place of a T/C: the source holds a T/C of zero for them, seemingly a mark for toxic or unscored doses. Some doses without a T/C left all or most animals alive at the check, yet need not have been tolerated: the source hardly ever lists a survival T/C far under the control, and the zero likely stands for such cases as well. Counts of survivors are from the toxicity check (mostly the fifth day) where no day follows; animals may have died later. Schedule codes are those of the source, read here as Q, the interval in days (D) or hours (H), X, the number of doses. Some schedules carry Z or #; the key to these is not given. Some complexes appear as separate parts, the way the source draws them; their charges need not add up. Where survival is the endpoint, the PubChem record calls one and a half times the control and up active, and a quarter to a half above the control has no call in these data; cut-offs in other NCI protocols can differ. Some T/C values are marked as having no survivor count here; that says nothing about deaths at the dose.

Test system: L1210 leukemia ip in BDF1 mice, survival T/C
Assay: NCI In Vivo Anticancer Drug Screen. Data for tumor model L1210 Leukemia (intraperitoneal) in B6D2F1 (BDF1) mice
Conditions: T/C endpoint: mean survival time, higher T/C = longer survival
[1] = dose: 50.0 mg/kg/injection, schedule: Q01DX009 (ip), vehicle: saline

CCN(CC)CCOC(=O)C(O)(c1cccc(C)c1)C1CCCCC1 (centres undefined)
T/C (dose: 75.0 mg/kg/injection, schedule: Q01DX001 (ip), vehicle: other): 102 % of control
T/C (dose: 150.0 mg/kg/injection, schedule: Q01DX001 (ip), vehicle: other): 96 % of control

CCOP(=O)(NCCCO)N(CCCl)CCCl (centres undefined)
T/C (dose: 28.0 mg/kg/injection, schedule: Q01DX Z (ip), vehicle: methylcellulose (MC)): 110 % of control
T/C (dose: 56.0 mg/kg/injection, schedule: Q01DX Z (ip), vehicle: methylcellulose (MC)): 88 % of control
survivor count (dose: 112.0 mg/kg/injection, schedule: Q01DX Z (ip), vehicle: methylcellulose (MC)): 4 of 6
survivor count (dose: 225.0 mg/kg/injection, schedule: Q01DX Z (ip), vehicle: methylcellulose (MC)): 3 of 6

O=C1C(Cl)=C(NCCCl)C(=O)C(Cl)=C1NCCCl
T/C (dose: 6.25 mg/kg/injection, schedule: Q04DX003 (ip), vehicle: Klucel (hydroxypropylcellulose) (HPC)): 95 % of control
T/C (dose: 12.5 mg/kg/injection, schedule: Q04DX003 (ip), vehicle: Klucel (hydroxypropylcellulose) (HPC)): 101 % of control
T/C (dose: 25.0 mg/kg/injection, schedule: Q04DX003 (ip), vehicle: Klucel (hydroxypropylcellulose) (HPC)): 92 % of control
T/C (dose: 50.0 mg/kg/injection, schedule: Q04DX003 (ip), vehicle: Klucel (hydroxypropylcellulose) (HPC)): 90 % of control
T/C (dose: 100.0 mg/kg/injection, schedule: Q04DX003 (ip), vehicle: Klucel (hydroxypropylcellulose) (HPC)): 104 % of control
T/C (dose: 150.0 mg/kg/injection, schedule: Q04DX003 (ip), vehicle: Klucel (hydroxypropylcellulose) (HPC)): 90 % of control
T/C (dose: 200.0 mg/kg/injection, schedule: Q04DX003 (ip), vehicle: Klucel (hydroxypropylcellulose) (HPC)): 97 % of control
T/C (dose: 225.0 mg/kg/injection, schedule: Q04DX003 (ip), vehicle: Klucel (hydroxypropylcellulose) (HPC)): 101 % of control
T/C (dose: 335.0 mg/kg/injection, schedule: Q04DX003 (ip), vehicle: Klucel (hydroxypropylcellulose) (HPC)): 95 % of control

NN/C(N)=N/[N+](=O)[O-]
T/C (dose: 5.0 mg/kg/injection, schedule: Q01DX Z (oral), vehicle: methylcellulose (MC)): 93 % of control [survivor count not shown]
T/C (dose: 10.0 mg/kg/injection, schedule: Q01DX Z (oral), vehicle: methylcellulose (MC)): 102 % of control [survivor count not shown]
T/C (dose: 15.0 mg/kg/injection, schedule: Q01DX Z (ip), vehicle: methylcellulose (MC)): 102 % of control [survivor count not shown]
T/C (dose: 15.0 mg/kg/injection, schedule: Q01DX Z (oral), vehicle: methylcellulose (MC)): 97 % of control [survivor count not shown]
T/C (dose: 30.0 mg/kg/injection, schedule: Q01DX Z (ip), vehicle: methylcellulose (MC)): 95 % of control [survivor count not shown]

CN(C)c1ccc(N=O)cc1.[C-]#N.[C-]#N.[C-]#N.[C-]#N.[C-]#N.[Fe+6]
T/C (dose: 12.5 mg/kg/injection, schedule: Q01DX009 (ip), vehicle: saline): 93 % of control
T/C (dose: 25.0 mg/kg/injection, schedule: Q01DX009 (ip), vehicle: saline): 93 % of control
T/C [1]: 95 % of control
survivor count [1]: 5 of 6
survivor count (dose: 100.0 mg/kg/injection, schedule: Q01DX009 (ip), vehicle: saline): 2 of 6
T/C (dose: 100.0 mg/kg/injection, schedule: Q04DX003 (ip), vehicle: saline): 99 % of control
survivor count (dose: 200.0 mg/kg/injection, schedule: Q01DX009 (ip), vehicle: saline): 0 of 6
T/C (dose: 200.0 mg/kg/injection, schedule: Q04DX003 (ip), vehicle: saline): 96 % of control
survivor count (dose: 400.0 mg/kg/injection, schedule: Q04DX003 (ip), vehicle: saline): 1 of 6
